Measurements published in PMC12561473.
No constants are given. Whether binding was seen depends on the method and setting. Binding seen in cells or lysates may run through a third protein. A yes stands for co-enrichment or nearness to the bait. Other partners may have been found. Sequences can lack the tags named with a protein.

Chains of the proteins cited; added tags and fusions are not shown.
UniProt Q99873: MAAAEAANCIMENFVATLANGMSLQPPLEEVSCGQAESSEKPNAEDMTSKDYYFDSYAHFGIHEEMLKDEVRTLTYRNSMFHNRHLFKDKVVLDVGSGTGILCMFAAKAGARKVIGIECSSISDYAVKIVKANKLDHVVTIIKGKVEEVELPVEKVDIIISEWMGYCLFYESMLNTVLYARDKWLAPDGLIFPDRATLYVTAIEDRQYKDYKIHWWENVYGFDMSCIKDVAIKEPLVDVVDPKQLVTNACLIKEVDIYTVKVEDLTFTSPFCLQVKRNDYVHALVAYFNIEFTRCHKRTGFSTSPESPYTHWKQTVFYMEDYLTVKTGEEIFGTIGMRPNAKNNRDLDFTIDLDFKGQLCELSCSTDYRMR

Biological target: T1, Flag-ATG4B (UniProt Q9Y4P1)
T1 sequence: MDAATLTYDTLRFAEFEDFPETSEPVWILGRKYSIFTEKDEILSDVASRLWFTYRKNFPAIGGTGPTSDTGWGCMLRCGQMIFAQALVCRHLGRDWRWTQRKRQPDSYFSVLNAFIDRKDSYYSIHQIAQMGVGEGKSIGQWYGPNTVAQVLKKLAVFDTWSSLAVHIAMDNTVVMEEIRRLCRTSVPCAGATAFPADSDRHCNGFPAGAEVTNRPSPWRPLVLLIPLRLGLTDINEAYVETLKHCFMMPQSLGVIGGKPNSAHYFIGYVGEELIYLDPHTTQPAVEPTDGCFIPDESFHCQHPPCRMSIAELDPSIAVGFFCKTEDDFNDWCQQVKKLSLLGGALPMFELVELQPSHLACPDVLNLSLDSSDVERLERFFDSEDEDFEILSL
Test: affinity purification with mass spectrometry; co-immunoprecipitation from cells stably expressing Flag-ATG4B combined with mass spectrometry

## PRMT1 (endogenous) (from UniProt Q99873 1-371)
  binding: binds
